Results published in ChEMBL document CHEMBL4477199, “Design and synthesis of novel bicalutamide and enzalutamide derivatives as antiproliferative agents for the treatment of prostate cancer” (Eur J Med Chem, 2016).

What was measured:
[1] = 96 h
[2] = 33000 µM

SMILES | solubility [1] | solubility [2]
CC(O)(CSc1ccccc1C(F)(F)F)C(=O)Nc1ccc(C#N)c(C(F)(F)F)c1 (stereo unspecified) | Soluble | Soluble
CC(O)(COc1ccc(C#N)cc1C(F)(F)F)C(=O)Nc1ccc([N+](=O)[O-])c(C(F)(F)F)c1 (stereo unspecified) | Soluble | Soluble
C[C@](O)(CSc1ccccc1C(F)(F)F)C(=O)Nc1ccc(C#N)c(C(F)(F)F)c1 | Soluble | Soluble
